No constants are given. Whether binding was seen depends on the method and setting. For some of these results: Binding seen in cells or lysates may run through a third protein. Some entries that bind do so weakly or less than the wild type. For some of these results: Where a sequence is shown, tags or fusion partners need not be part of it.
Assays:
LexA-E47477-651 [1] = target: T1, LexA-E47477-651 (UniProt P15923); assay: yeast two-hybrid interaction trap, beta-galactosidase assay
T1 sequence (looked up): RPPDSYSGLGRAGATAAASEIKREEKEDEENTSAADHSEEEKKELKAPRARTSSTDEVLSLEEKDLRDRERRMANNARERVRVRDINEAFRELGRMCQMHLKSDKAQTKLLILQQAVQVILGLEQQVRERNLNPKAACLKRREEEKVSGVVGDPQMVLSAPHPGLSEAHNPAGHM

[2] = target: T2, E47 amino acids 477-530 bait (54-amino acid region of E47) (UniProt P15923); assay: yeast two-hybrid interaction trap
T2 sequence (looked up): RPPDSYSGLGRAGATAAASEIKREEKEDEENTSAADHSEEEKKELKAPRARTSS

LexA-E47477-651 [3] = target: T1, LexA-E47477-651; assay: yeast two-hybrid interaction trap
[4] = target: T3, Id3 (clone of the rat aorta cDNA library, activation-domain fusion) (rat) (UniProt P41138); assay: yeast two-hybrid interaction trap
T3 sequence (looked up): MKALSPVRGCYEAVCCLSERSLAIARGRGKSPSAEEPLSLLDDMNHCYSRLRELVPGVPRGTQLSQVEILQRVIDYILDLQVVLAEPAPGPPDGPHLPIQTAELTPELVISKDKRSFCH

[5] = target: in vitro translated E12 protein (UniProt P15923); assay: co-immunoprecipitation of in vitro translated proteins with an anti-E12 antibody
GST-E121-654 (human) = GST-E121-654 (human) (UniProt P15923); assay: GST pull-down of 35S-labeled in vitro translated UBCE2A on glutathione-Sepharose beads
GST-E12477-654 (human) = GST-E12477-654 (human) (UniProt P15923); assay: as above

**Q.** Which binding (LexA-E47477-651 [1]) does the source give for “AD-UBCE2A (full-length UBCE2A fused to the B42 transcription activation domain) (from UniProt P63279 1-158) (enzyme)” here?
**A.** The binding was “binds”.

**Q.** What about the binding [2] of the same substance?
**A.** The binding was “binds”.

**Q.** And the binding (LexA-E47477-651 [3])?
**A.** Its binding is “binds”.

**Q.** Which binding [4] does the source give for “LexA-E12539-654 (from UniProt P15923 539-654)” here?
**A.** Its binding is “binds”.

**Q.** “[35S]methionine-labeled in vitro translated UBCE2A (from UniProt P63279 1-158) (enzyme)” was tested. Which binding [5] did it give?
**A.** The binding was “binds”.

**Q.** What about the binding (GST-E121-654 (human)) of the same substance?
**A.** Its binding is “binds”.

**Q.** And the binding (GST-E12477-654 (human))?
**A.** The binding was “binds”.

Source: patent US20020128189A1, “Ubiquitination of the transcription factor E2A” (President and Fellows of Harvard College, a Massachusetts …, priority 1996, published 2002)
